# Assay results taken from the supplement of paper PMC3334620.
# The full ranking holds about 33,000 sequences; the median of “E-score (-0.5 to 0.5)” is about -0.016, and the highest 2% start at about 0.3. This is one part of the list.
# Target: T1, Yer184c (UniProt P39961)
# T1 sequence: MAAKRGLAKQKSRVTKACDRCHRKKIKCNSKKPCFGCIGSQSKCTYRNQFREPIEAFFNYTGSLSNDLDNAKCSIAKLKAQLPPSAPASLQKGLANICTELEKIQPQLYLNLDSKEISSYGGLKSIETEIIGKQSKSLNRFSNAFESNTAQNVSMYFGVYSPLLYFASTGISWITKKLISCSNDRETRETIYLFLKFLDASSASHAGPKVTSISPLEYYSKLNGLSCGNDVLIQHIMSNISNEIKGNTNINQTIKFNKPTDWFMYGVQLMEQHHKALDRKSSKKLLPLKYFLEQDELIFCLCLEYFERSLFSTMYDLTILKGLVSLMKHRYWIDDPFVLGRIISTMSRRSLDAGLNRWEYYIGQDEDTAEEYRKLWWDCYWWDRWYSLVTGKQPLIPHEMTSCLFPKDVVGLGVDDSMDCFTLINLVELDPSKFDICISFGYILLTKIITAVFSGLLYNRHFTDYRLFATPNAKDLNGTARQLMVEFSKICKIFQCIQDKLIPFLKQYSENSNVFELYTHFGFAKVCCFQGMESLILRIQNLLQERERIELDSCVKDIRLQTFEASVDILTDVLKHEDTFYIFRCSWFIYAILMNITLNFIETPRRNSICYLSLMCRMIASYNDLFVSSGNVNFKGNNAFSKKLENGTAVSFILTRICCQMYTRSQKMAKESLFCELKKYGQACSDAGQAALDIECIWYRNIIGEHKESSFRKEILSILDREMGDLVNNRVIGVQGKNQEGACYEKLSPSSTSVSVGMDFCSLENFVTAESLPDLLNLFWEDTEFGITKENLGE
# Experiment: PBM E-score (8-mer binding enrichment) (E-score (-0.5 to 0.5)); higher = stronger / more preferred TF binding
# Settings: protein concentration: 100 nM; construct: GST-full length
# Outline: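 Each ungapped eight-base word and its reverse complement, pooled, received an E-score from the Universal PBM Analysis Suite. Underlying scans, normalised with masliner, recorded fluorescent anti-GST bound to GST-tagged yeast transcription factors. These were applied at about 100-200 nM to universal all-10-mer Agilent arrays double-stranded by primer extension.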
row,Sequence,PBM E-score
1,ACAGTGTC,-0.191
2,AATTGTAT,0.138
3,CACTTCCC,-0.0654
4,ATTTTGGA,0.148
5,AAAAAAGG,0.18
6,CTCTAGGA,-0.234
7,CTGAAATC,0.0356
8,GAAAATCA,0.172
9,CAGGACAA,0.219
10,CCGGCCGC,0.304
11,CCGTACGA,-0.0091
12,CCCACGTA,-0.255
13,AGTCATGC,-0.136
14,CCAATCAC,-0.167
15,TCTAACAA,0.0476
16,TCCCGGCA,0.256
17,CCACCCCC,-0.336
18,CTTGTATA,0.0185
19,CAAGAAAG,0.0559
20,AGGAACCA,0.096
21,AGTACTGC,-0.177
22,ATGTGCTG,0.14
23,GTCTGTGA,-0.098
24,AGCCCTGA,-0.113
25,AGGAATCA,0.078

row,Sequence,PBM E-score
1,AATTCTAT,0.0873
2,CCTTTGCG,-0.109
3,ACTGAATC,-0.0361
4,GAGTCGTA,-0.0554
5,GGCCCGTA,0.0235
6,GTTGTGTA,-0.0255
7,CGGCCACC,0.154
8,GCATCGAC,-0.0882
9,TAACCCCA,-0.345
10,CCAATGAC,-0.176
11,GATCGTTA,-0.154
12,CCAGGCGA,-0.22
13,ATCAGCTG,0.115
14,CTTCCGAA,0.39
15,CACCAGAA,-0.147
16,TCCTAAAA,0.0838
17,GATGACGA,-0.022
18,AGGACACA,0.165
19,AATTGCTG,0.0973
20,ATACCAAC,0.00336
21,ACACGGCT,0.171
22,CCCTTGCA,-0.372
23,GGAGACGA,0.159
24,GCCATGAA,-0.00087
25,CATACGCG,-0.0259

row,Sequence,PBM E-score
1,ATGCGGCC,0.109
2,GTCAGACA,-0.0984
3,ATATTTAG,0.202
4,GATCCGGA,0.395
5,ATAGCATC,-0.0575
6,ATACGGCG,0.203
7,AATTTCGC,0.146
8,CGCCAGAA,0.0364
9,CATTCCAA,-0.0772
10,TTAGGAAA,0.146
11,CTAGAAGA,0.103
12,AAGCTCCA,-0.17
13,ACCGGCCC,0.13
14,TGGGGCAA,-0.286
15,AGGAATAC,-0.0183
16,CGGGTATC,0.0139
17,GCGGTCGA,0.15
18,GGGTTATA,-0.298
19,ATACACAG,-0.219
20,CATAAAGC,-0.101
21,CATTAAGA,-0.0926
22,GGGCTCTA,-0.0148
23,ACATAAAG,0.197
24,AGCAGCCC,-0.222
25,TATGCAGA,-0.075

# A second format for some results above.
row	Sequence	PBM E-score
12	CCAGGCGA	-0.22
13	ATCAGCTG	0.115
14	CTTCCGAA	0.39
15	CACCAGAA	-0.147
16	TCCTAAAA	0.0838
17	GATGACGA	-0.022
18	AGGACACA	0.165
20	ATACCAAC	0.00336
21	ACACGGCT	0.171
22	CCCTTGCA	-0.372
23	GGAGACGA	0.159
24	GCCATGAA	-0.00087
25	CATACGCG	-0.0259
2	GTCAGACA	-0.0984
3	ATATTTAG	0.202
4	GATCCGGA	0.395
5	ATAGCATC	-0.0575
6	ATACGGCG	0.203
7	AATTTCGC	0.146
8	CGCCAGAA	0.0364
9	CATTCCAA	-0.0772
11	CTAGAAGA	0.103
12	AAGCTCCA	-0.17
13	ACCGGCCC	0.13
14	TGGGGCAA	-0.286
15	AGGAATAC	-0.0183
16	CGGGTATC	0.0139
17	GCGGTCGA	0.15
18	GGGTTATA	-0.298
19	ATACACAG	-0.219
20	CATAAAGC	-0.101
21	CATTAAGA	-0.0926
22	GGGCTCTA	-0.0148
23	ACATAAAG	0.197
24	AGCAGCCC	-0.222
25	TATGCAGA	-0.075

# Next part.

row,Sequence,PBM E-score
1,CGATACCG,-0.0503
2,AAGTAGGA,-0.0944
3,ACAGGTTC,-0.233
4,CCCATCGA,-0.0649
5,GTAAGTGA,0.141
6,CGATATGA,0.0643
7,ACTTGCTA,-0.0452
8,GGTCGGAA,0.225
9,AGGACGTA,-0.212
10,ATGCACAG,-0.216
11,AAAACAGG,-0.126
12,CAGTCAAC,-0.0922
13,CAGTTTTC,0.136
14,AGCCTGAG,-0.074
15,AATGTCAA,0.0179
16,AGACAACC,0.182
17,CATACTCC,0.00805
18,AGTTGCTG,-0.06
19,CGCATAAG,-0.0386
20,AAGATACG,0.16
21,GCTGAAAC,0.138
22,AATGCTGG,-0.0289
23,AGACTCGC,-0.14
24,ACGGGGCA,-0.23
25,GACAGCTA,-0.081

row,Sequence,PBM E-score
1,ATGAGTCG,-0.267
2,ATTCTGGG,-0.0625
3,CCCGCGGA,0.257
4,AAACCAAG,0.051
5,AATTGCTA,0.0206
6,CTCCTCCC,-0.151
7,ACCCCCGT,-0.281
8,CCTTACGC,-0.176
9,AATTACTA,0.198
10,CATATTAC,0.121
11,CCTATGTA,-0.171
12,AGCAGGTA,-0.147
13,GTATAGAC,-0.0957
14,ACCAAGGC,-0.0881
15,CAAACCGG,0.206
16,CGCAAACG,0.0372
17,CGGCGCTA,0.162
18,GCAGATGA,-0.138
19,ATTAAATA,0.22
20,CCTGCAAC,-0.075
21,ATACAGGC,-0.194
22,ATTATCAG,0.0899
23,AGATGTAC,-0.127
24,AGGGTAAC,-0.294
25,CGATGAGA,0.0795

row,Sequence,PBM E-score
1,ATCACACC,0.0117
2,CATGTGGA,-0.173
3,GGGCTCAC,-0.31
4,ACCAGGTC,-0.132
5,AGACGAAC,0.0501
6,CTCTACAC,-0.181
7,ATCCGGGA,0.258
8,GCTCTGAA,-0.0396
9,AGGATATC,-0.0241
10,AGTGTCCG,0.176
11,ATAGTCAC,-0.0148
12,AAGGTCCC,-0.242
13,ACGGTAAC,0.221
14,ACGAATCT,0.0333
15,GCCACAAA,0.0617
16,CTTGATCA,0.119
17,CAGACCGA,0.155
18,CGATTCAA,-0.0538
19,CACCGAAA,0.25
20,ACCAATTG,-0.0255
21,ATCTGCGG,0.165
22,CTCACAGC,-0.0338
23,AAATCCTA,0.0691
24,AGAACCGG,0.233
25,ATCCCCAG,-0.29

row,Sequence,PBM E-score
1,ACGCCTCC,-0.197
2,AGGGGGAG,-0.331
3,AGCCGTTG,0.13
4,ACTGAAGA,0.114
5,ATCTGAAT,0.0452
6,CCCGGCGC,0.216
7,CCGTTGCC,0.18
8,AGAGATTA,-0.0367
9,ACCCGACG,0.0621
10,CATAGGAG,-0.166
11,GCGCCTAA,0.0401
12,ACTAACCA,0.107
13,TAAGGCAA,-0.0253
14,ATACCTTA,0.0942
15,TCAGGCCA,-0.0244
16,AGTGTTAG,0.0348
17,AGTCATTG,-0.247
18,CCACGGCA,0.0784
19,GGCTGTCA,-0.0849
20,ACAGGGAG,-0.133
21,CCGAACTC,0.246
22,AGTGCAGG,-0.139
